Assay results taken from paper PMC8880767.
No constants are given. Whether binding was seen depends on the method and setting. In cells and extracts the contact can be indirect. Some results given as binding are weak or reduced against the parent protein; the word gives no strength.

Sequences of proteins named here, by UniProt entry; tags and fusion partners are left off.
UniProt P39938: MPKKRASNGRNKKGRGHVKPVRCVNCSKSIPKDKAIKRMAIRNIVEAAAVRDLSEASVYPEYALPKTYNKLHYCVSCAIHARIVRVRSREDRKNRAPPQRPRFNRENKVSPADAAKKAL

T1: Tsr2-TAP (S. cerevisiae) (UniProt Q06672)
T1 sequence: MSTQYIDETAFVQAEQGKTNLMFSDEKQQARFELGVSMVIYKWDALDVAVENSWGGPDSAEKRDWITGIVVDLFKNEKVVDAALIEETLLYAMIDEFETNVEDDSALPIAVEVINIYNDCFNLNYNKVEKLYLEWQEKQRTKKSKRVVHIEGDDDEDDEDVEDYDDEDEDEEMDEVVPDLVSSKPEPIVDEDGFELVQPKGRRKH

T2: Rps3-TAP (Rps3–CBP–protein A) (S. cerevisiae) (UniProt P05750)
T2 sequence: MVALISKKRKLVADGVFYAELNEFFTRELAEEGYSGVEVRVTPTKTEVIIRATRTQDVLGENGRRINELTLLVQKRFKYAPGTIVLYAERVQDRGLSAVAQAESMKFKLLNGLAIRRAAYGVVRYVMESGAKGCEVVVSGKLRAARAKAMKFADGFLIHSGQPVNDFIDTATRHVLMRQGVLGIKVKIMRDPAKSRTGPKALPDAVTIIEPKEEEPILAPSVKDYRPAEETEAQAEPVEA

B1: Rps8 (protein, UniProt P0CX39 1-200)
chain: MGISRDSRHKRSATGAKRAQFRKKRKFELGRQPANTKIGAKRIHSVRTRGGNKKYRALRIETGNFSWASEGISKKTRIAGVVYHPSNNELVRTNTLTKAAIVQIDATPFRQWFEAHYGQTLGKKKNVKEEETVAKSKNAERKWAARAASAKIESSVESQFSAGRLYACISSRPGQSGRCDGYILEGEELAFYLRRLTAKK

Assays:
[1] = molecular target: T1, Tsr2-TAP (S. cerevisiae); test: pull-down; Tsr2-TAP from yeast lysate on IgG sepharose, wash buffer with 500 mM NaCl, TEV elution, Western blot; cells with or without 1 M NaCl
[2] = molecular target: T2, Rps3-TAP (Rps3–CBP–protein A) (S. cerevisiae); test: pull-down; Rps3-TAP (preexisting) ribosomes from yeast lysate on IgG sepharose, ~2 h 4°C; washed with 50 mM tris pH 7.5, 100 mM NaCl, 10 mM MgCl2, 0.075% NP-40; eluted with TEV protease; Western blot; cells with or without 1 M NaCl or 1 M sorbitol, or after 1 h recovery

binding [1]	binding [2]	Molecule
binds	–	Rps26-HA (from UniProt P39938 1-119)
–	binds	B1
